The supplement of paper PMC12823440, “Inhibitors supercharge kinase turnover through native proteolytic circuits” (Nature, 2025)
Where a name gives a salt, the structure may show the parent alone. The list shows a part of the results. Hit calls seldom repeat between salt and free forms of one compound.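 Kinases, fused to nanoluciferase, were expressed in K562 cells; luminescence was measured every 4 h from 2 to 18 h as percent of control (DMSO = 100%, positive control = 0%). A time point is decreased if signal falls significantly (2 sigma). Hits were called by the authors by a rule that is not shown; the count of time points alone does not decide it.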

The chains behind the UniProt entries cited, without tags or fusion partners. Where a name states a change or a piece, a line headed by the entry shows the natural chain unless it says otherwise.
UniProt Q14289, whole entry, looked up: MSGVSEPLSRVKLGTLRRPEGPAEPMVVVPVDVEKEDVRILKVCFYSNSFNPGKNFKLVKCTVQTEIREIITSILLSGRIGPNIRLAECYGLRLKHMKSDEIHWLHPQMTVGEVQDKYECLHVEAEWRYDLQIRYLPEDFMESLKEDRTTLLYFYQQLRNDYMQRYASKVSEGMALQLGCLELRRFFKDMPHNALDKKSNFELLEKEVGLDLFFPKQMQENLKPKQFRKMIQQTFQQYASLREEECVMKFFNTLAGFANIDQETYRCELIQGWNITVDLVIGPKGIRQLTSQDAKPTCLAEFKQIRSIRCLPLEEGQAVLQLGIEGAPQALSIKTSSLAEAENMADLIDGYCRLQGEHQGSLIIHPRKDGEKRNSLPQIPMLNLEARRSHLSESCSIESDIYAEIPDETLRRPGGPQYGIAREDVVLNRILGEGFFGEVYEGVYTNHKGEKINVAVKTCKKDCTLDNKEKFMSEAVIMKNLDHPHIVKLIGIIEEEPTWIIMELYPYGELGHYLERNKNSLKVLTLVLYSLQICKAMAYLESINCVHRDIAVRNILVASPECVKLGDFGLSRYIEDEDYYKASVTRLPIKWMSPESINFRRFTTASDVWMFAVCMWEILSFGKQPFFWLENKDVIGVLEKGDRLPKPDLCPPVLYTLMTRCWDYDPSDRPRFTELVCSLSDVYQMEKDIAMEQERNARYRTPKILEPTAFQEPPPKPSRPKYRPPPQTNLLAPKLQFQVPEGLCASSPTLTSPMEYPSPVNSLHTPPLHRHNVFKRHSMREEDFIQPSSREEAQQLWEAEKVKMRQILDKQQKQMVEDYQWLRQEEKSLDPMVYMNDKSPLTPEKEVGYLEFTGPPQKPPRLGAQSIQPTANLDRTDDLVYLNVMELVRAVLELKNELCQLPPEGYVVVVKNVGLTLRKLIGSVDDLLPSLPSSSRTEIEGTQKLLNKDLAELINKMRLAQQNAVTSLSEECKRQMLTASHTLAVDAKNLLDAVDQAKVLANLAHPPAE
UniProt P07949, whole entry, looked up: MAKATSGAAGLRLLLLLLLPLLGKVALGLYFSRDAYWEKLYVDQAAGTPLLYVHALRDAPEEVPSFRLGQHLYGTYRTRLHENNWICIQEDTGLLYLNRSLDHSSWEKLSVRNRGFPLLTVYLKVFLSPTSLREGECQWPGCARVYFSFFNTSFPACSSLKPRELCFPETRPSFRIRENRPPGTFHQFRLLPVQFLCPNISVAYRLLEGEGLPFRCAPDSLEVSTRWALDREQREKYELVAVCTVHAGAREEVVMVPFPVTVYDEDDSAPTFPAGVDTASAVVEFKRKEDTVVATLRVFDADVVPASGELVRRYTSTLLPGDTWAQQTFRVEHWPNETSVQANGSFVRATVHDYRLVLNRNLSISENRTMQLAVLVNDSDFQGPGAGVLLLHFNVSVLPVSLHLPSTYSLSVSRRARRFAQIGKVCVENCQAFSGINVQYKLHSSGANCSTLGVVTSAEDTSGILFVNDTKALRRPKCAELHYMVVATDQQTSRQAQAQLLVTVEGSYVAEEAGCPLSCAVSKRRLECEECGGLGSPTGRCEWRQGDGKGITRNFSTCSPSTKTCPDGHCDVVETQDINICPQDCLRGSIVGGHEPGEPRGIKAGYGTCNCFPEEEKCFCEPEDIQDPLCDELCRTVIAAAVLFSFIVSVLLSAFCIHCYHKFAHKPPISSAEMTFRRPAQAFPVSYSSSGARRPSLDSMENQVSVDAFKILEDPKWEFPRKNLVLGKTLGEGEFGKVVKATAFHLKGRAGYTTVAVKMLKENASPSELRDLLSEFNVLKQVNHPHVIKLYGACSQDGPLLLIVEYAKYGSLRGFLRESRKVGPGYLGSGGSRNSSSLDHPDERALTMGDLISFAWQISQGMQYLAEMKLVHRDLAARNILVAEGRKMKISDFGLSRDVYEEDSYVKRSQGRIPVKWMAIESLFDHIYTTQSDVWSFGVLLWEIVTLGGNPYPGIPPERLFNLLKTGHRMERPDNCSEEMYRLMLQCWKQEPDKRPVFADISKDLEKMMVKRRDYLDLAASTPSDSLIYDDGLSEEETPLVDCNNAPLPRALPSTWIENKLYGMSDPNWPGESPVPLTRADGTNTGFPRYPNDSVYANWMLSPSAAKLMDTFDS
UniProt P07949, whole entry M918T, looked up: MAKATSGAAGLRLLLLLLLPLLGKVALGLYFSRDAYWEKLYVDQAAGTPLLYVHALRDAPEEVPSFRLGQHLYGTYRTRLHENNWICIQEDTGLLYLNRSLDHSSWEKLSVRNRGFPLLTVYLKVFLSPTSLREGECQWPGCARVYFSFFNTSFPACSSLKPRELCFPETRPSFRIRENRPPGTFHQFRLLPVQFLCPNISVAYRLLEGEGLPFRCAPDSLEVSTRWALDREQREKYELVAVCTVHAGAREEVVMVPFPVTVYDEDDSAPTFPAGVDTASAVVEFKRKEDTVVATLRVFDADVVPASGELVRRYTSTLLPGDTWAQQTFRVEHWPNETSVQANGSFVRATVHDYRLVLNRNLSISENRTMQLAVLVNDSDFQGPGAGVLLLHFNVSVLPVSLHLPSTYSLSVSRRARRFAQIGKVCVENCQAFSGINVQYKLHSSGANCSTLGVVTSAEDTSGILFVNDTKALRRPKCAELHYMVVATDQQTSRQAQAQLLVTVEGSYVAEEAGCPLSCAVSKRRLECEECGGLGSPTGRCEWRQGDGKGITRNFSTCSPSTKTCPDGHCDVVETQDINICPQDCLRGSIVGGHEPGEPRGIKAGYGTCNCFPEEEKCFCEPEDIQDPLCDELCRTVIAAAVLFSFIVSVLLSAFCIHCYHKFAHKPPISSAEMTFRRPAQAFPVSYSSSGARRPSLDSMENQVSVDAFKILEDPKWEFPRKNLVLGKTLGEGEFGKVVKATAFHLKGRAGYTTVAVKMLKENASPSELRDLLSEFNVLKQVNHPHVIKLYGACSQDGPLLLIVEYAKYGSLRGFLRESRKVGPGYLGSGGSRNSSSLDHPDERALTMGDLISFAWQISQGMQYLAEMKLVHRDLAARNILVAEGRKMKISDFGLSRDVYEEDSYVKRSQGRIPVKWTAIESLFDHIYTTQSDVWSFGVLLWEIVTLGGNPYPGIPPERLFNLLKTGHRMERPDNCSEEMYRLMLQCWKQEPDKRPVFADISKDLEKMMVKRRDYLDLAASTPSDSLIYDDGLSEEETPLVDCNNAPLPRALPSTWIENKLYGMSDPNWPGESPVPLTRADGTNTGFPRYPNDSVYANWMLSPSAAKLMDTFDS
UniProt Q9BRS2: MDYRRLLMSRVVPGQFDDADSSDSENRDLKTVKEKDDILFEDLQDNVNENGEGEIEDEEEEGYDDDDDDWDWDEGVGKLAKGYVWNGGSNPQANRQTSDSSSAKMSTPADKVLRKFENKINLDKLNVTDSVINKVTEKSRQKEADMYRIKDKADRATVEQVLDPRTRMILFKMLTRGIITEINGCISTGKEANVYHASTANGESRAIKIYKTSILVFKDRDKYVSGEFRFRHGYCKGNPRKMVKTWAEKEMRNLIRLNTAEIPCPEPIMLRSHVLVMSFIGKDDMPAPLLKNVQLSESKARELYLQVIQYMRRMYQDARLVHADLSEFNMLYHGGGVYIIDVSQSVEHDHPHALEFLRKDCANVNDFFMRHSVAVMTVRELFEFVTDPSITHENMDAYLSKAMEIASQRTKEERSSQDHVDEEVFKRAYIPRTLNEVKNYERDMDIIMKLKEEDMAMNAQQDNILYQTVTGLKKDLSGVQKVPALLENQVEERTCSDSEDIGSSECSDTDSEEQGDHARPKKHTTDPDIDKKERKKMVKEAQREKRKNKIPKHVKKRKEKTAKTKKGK
UniProt Q15418, whole entry: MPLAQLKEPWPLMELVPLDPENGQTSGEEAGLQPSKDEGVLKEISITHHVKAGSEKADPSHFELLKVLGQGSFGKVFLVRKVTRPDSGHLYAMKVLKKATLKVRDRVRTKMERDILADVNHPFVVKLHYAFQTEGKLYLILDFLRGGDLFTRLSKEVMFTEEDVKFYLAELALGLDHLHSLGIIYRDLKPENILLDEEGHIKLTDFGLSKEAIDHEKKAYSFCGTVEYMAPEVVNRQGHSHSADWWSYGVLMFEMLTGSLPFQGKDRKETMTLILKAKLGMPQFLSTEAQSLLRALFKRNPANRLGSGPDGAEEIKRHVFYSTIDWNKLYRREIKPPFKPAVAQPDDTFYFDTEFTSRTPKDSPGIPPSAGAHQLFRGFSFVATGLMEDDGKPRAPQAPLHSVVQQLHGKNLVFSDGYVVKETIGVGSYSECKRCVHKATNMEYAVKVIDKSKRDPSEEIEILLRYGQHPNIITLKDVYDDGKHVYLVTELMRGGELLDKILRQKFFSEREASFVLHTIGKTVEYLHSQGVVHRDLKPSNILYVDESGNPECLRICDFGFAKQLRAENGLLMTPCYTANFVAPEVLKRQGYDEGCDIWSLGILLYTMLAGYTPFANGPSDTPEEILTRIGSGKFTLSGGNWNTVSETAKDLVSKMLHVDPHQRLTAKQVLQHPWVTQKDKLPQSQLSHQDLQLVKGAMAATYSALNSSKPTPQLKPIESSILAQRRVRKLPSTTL
UniProt Q9NYA1, whole entry: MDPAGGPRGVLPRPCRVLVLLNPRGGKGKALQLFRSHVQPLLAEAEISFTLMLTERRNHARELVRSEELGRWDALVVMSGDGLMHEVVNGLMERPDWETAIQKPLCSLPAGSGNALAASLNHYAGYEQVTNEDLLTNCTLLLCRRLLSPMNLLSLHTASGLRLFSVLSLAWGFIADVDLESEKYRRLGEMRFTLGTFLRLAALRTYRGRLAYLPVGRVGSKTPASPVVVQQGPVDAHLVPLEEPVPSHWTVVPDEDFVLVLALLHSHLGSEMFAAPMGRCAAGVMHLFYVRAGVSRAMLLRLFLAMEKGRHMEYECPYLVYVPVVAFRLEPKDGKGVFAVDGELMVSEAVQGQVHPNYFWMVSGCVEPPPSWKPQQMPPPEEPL
UniProt Q9Y6E0: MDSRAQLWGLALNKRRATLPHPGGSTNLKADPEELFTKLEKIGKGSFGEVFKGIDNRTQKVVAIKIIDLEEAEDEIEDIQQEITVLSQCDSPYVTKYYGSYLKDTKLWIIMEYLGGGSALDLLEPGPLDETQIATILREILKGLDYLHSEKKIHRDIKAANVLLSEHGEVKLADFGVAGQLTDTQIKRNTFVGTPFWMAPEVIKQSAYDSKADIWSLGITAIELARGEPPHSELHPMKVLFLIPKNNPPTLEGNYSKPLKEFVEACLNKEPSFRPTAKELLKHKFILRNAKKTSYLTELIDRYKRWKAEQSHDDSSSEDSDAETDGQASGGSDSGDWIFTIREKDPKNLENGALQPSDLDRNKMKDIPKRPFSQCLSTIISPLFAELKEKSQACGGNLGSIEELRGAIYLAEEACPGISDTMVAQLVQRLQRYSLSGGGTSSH
UniProt Q15208: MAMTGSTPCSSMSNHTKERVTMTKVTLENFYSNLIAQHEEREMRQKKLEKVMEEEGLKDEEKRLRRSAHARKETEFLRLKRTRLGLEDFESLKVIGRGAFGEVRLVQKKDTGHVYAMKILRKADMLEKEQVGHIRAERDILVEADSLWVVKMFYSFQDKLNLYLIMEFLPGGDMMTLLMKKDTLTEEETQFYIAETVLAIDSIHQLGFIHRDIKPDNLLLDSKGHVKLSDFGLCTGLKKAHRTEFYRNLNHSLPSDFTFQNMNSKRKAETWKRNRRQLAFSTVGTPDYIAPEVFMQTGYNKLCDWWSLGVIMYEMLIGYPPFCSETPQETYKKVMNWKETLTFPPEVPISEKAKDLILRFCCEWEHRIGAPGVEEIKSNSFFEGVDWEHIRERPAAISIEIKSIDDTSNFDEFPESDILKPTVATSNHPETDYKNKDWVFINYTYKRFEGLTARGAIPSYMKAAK
UniProt P42680: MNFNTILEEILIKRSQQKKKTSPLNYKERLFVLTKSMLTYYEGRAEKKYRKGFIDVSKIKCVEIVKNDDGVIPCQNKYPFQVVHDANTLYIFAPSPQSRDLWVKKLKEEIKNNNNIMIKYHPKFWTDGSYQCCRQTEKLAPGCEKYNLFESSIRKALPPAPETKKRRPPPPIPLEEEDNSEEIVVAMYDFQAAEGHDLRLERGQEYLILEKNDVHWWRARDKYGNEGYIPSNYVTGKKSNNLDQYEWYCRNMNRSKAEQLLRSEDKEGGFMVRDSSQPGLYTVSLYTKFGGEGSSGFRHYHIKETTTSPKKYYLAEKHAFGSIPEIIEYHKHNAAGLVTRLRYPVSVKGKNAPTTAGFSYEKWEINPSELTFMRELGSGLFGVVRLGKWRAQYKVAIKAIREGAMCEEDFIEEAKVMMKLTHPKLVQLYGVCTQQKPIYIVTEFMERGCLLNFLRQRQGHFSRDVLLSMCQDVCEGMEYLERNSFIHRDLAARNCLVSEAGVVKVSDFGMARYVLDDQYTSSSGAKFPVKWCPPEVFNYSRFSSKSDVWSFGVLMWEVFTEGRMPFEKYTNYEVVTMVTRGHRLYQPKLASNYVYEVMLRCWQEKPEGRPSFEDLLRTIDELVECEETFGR

What was measured:
Assay in all cases: number of time points (of 5) at which kinase-Nluc abundance scored as decreased, DMSO-normalised (count); higher = more persistent destabilization
Conditions in all cases: K562; 2-18 h
PRKCA = PRKCA (UniProt P17252)
PTK2 = PTK2 (UniProt Q05397)
PTK2B = PTK2B (UniProt Q14289)
RAF1 = RAF1 (UniProt P04049)
[1] = biological target: RAF1_S257L (clone: RAF1_mut) (UniProt P04049)
RET = RET (UniProt P07949)
[2] = biological target: RET_M918T (clone: RET_mut) (UniProt P07949)
RIOK1 = RIOK1 (UniProt Q9BRS2)
RIPK1 = RIPK1 (UniProt Q13546)
RIPK2 = RIPK2 (UniProt O43353)
ROR2 = ROR2 (UniProt Q01974)
RPS6KA1 = RPS6KA1 (UniProt Q15418)
SPHK1 = SPHK1 (UniProt Q9NYA1)
SRC = SRC (UniProt P12931)
STK24 = STK24 (UniProt Q9Y6E0)
STK38 = STK38 (UniProt Q15208)
SYK = SYK (UniProt P43405)
TEC = TEC (UniProt P42680)
TYK2 = TYK2 (UniProt P29597)
ULK3 = ULK3 (UniProt Q6PHR2)

SMILES	number of time points (PRKCA)	number of time points (PTK2)	number of time points (PTK2B)	number of time points (RAF1)	number of time points [1]	number of time points (RET)	number of time points [2]	number of time points (RIOK1)	number of time points (RIPK1)	number of time points (RIPK2)	number of time points (ROR2)	number of time points (RPS6KA1)	number of time points (SPHK1)	number of time points (SRC)	number of time points (STK24)	number of time points (STK38)	number of time points (SYK)	number of time points (TEC)	number of time points (TYK2)	number of time points (ULK3)
N#C/C(=C/c1ccc(O)c(O)c1)C(=O)N1CCc2ccccc21 [Tyrphostin AG 528] (10 µM)	0	0	0	0	0	0	0	0	0	0	0	0	0	0	0	0	0	0	0	0
CC1=C(C#N)C(c2ccc3[nH]nc(C)c3c2)C(C#N)=C(C)N1 (10 µM)	0	0	0	0	0	0	0	0	0	0	0	0	0	0	0	0	0	0	0	0
Cc1cc2c(F)c(Oc3ncnn4cc(OC[C@@H](C)OC(=O)[C@H](C)N)c(C)c34)ccc2[nH]1 [Brivanib (alaninate)] (10 µM)	0	0	0	0	0	0	0	0	0	0	0	0	0	0	0	0	0	0	0	0
O=CN1CCN(c2ccc(C=C3C(=O)Nc4ccccc43)cc2)CC1 (10 µM)	0	0	0	0	0	0	0	0	0	0	0	0	0	0	0	0	0	0	0	0
CN(C)C(=O)c1cc2cnc(Nc3ccc(N4CCN(CCCCNC(=O)COc5cccc6c5C(=O)N(C5CCC(=O)NC5=O)C6=O)CC4)cn3)nc2n1C1CCCC1 (stereo not given) (10 µM)	0	0	0	0	0	0	0	0	0	0	0	0	0	0	0	0	0	0	0	0
CCCCNc1ncc2c(-c3ccc(F)cc3)nn(CC3CCC(N)CC3)c2n1 (stereo not given) (2.5 µM)	0	0	0	0	0	0	0	0	0	0	0	0	0	0	0	0	0	0	0	0
S=C(NCc1ccc2c(c1)OCO2)N1CCN(c2ncnc3c2oc2ccccc23)CC1 [Amuvatinib] (2.5 µM)	0	0	0	0	0	0	0	0	0	0	0	0	0	0	0	0	0	0	0	0
CCn1c(N)c(C(=O)NC)c(=O)c2ccc(C#CC(C)(O)COC)nc21 (stereo not given) (10 µM)	0	0	0	0	0	0	0	0	0	0	0	0	0	0	0	0	0	0	0	0
COc1ccc(CCNCc2ccc(OCc3ccc(Cl)nc3)c(OC)c2)cc1OC [SBE13 (Hydrochloride)] (10 µM)	0	0	0	0	0	0	0	0	0	0	0	0	0	0	0	0	0	0	0	0
COc1cc2nc(-c3cc(F)ccc3O)nc(N[C@@H]3CNC[C@H]3C(C)(C)O)c2cc1OC (2.5 µM)	0	0	0	0	0	0	0	0	0	0	0	0	0	0	0	0	0	0	0	0
CC1=CC(=O)C(C(C)C)=C/C1=N/OC(=O)c1ccccc1C [Poloxin] (2.5 µM)	0	0	0	0	0	0	0	0	0	0	0	0	0	0	0	0	0	0	0	0
Fc1ccc(-c2nc3n(c2-c2ccncc2)CCS3)cc1 (10 µM)	0	0	0	0	0	0	0	0	0	0	0	0	0	0	0	0	0	0	0	0
CO[C@]1(C(=O)N[C@@H](C)c2ccc(-n3cc(F)cn3)nc2)CC[C@H](c2nc(C)cc(Nc3cc(C)[nH]n3)n2)CC1 [Pralsetinib] (10 µM)	0	0	0	0	2	0	0	0	0	0	0	0	0	0	0	0	0	0	0	0
O=C(Nc1ccc(F)cc1F)C(NC(=S)Nc1cc(C(F)(F)F)cc(C(F)(F)F)c1)c1ccccc1 (racemic) (2.5 µM)	0	0	0	0	0	0	0	0	0	0	0	0	0	0	0	0	0	0	0	0
C=CC(=O)N1CCC(c2ccc(C(N)=O)c(-c3ccc(Oc4ccccc4)cc3)n2)CC1 [Orelabrutinib] (2.5 µM)	0	0	0	0	0	0	0	0	0	0	0	0	0	0	0	0	0	0	0	0
CC/C(=C(\c1ccccc1)c1ccc(OCCNC)cc1)c1ccccc1 [N-Desmethyltamoxifen (hydrochloride)] (2.5 µM)	0	0	0	0	0	0	0	0	0	0	0	0	0	0	0	0	0	0	0	0
N#CC(=C(/N)Sc1ccccc1N)/C(C#N)=C(\N)Sc1ccccc1N (10 µM)	0	0	0	0	0	0	0	0	0	0	0	0	0	0	0	0	0	0	0	5
CCOC(=O)c1c(N2CCc3ccc(OC)cc3C2)oc(C=C2C=Nc3ncccc32)c1O (10 µM)	0	0	0	0	0	0	0	0	0	0	0	0	0	0	0	0	0	0	1	0
O=C(NCc1ccn[nH]1)c1cc([C@@H]2CCNC[C@H]2COc2ccc3c(c2)OCO3)ccc1F [GRK2-IN-1 (hydrochloride)] (10 µM)	0	0	0	0	0	0	0	0	0	0	0	0	0	0	0	0	0	0	0	0
COc1cc2nc(NC3CC3)nc(NC3CCN(C(C)C)CC3)c2cc1OC (10 µM)	0	0	0	1	0	0	0	0	1	0	0	0	0	0	0	0	0	0	0	2
Nc1ccc(-c2nc3ccc(-c4nc5ccc(N)cc5[nH]4)cc3[nH]2)cc1 (10 µM)	0	0	0	0	0	0	0	0	0	0	0	0	0	0	0	0	0	0	0	0
O=C(NC[C@H](O)CO)c1ccncc1Nc1ccc(I)cc1F [Pimasertib] (10 µM)	0	1	1	2	1	1	0	1	2	1	0	0	0	0	0	1	0	0	1	1
CS(=O)(=O)c1ccc([C@@H](CC2CCCC2)C(=O)Nc2nccs2)cc1 (10 µM)	0	0	0	0	0	0	0	0	0	0	0	0	0	0	0	0	0	0	0	0
NC(=O)c1sc2c([N+](=O)[O-])cc(C(F)(F)F)cc2[n+]1[O-] [Cyclapolin 9] (10 µM)	0	0	0	0	0	0	0	0	0	0	0	0	0	0	0	0	0	0	0	0

Individual results from above.
In number of time points (ULK3), O=C(Nc1ccc(F)cc1F)C(NC(=S)Nc1cc(C(F)(F)F)cc(C(F)(F)F)c1)c1ccccc1 (racemic) (2.5 µM) reads 0
In number of time points (RIPK2), CCOC(=O)c1c(N2CCc3ccc(OC)cc3C2)oc(C=C2C=Nc3ncccc32)c1O (10 µM) reads 0
